Results from article PMC6294118 (Pharmaceutical research, 2018).

Biological target: T1, hOCT1 (Homo sapiens, UniProt O15245)
T1 sequence (O15245 1-554): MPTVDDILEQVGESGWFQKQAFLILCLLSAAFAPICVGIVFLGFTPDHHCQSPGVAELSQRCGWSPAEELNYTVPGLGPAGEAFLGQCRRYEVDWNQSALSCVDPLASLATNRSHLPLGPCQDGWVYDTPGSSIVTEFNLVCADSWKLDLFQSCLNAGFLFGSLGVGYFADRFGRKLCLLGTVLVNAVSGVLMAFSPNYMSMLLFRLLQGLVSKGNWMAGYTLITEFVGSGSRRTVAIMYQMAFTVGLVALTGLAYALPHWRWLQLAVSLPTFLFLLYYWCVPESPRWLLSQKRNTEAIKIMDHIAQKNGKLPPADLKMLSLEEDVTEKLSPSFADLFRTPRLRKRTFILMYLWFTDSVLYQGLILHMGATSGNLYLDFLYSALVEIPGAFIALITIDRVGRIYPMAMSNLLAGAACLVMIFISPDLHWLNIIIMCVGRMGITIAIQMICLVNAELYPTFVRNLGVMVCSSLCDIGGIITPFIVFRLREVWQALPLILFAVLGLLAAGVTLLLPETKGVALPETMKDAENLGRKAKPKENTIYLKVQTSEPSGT
Details: HEK293-hOCT1 vs HEK293-mock; 0.2 μM morphine, 2 min

CN1CC[C@]23c4c5ccc(O)c4O[C@H]2[C@@H](O)C=C[C@H]3[C@H]1C5 [morphine]
Uptake of morphine, fold relative to mock cells: 3.56 fold
